Some of the results follow. Repeats are few or missing, and single values can be far off.

This assay deals with Saccharomyces cerevisiae BY4743. The experiment in a line: growth (OD600) relative to untreated control; higher = less growth inhibition. The conditions noted are these: compound concentration: 133 uM; 20 h. The procedure: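 NMCCC compounds (133 uM, no IPBC) tested alone against Saccharomyces cerevisiae BY4743 in YPD, 96-well plates, starting OD600 ~0.1. Growth was read as OD600 at 20 h and expressed as % of the untreated control. Single pass.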
For the molecule `COc1ccc(-c2cc(C(=O)NCc3nccn3C)on2)cc1`, the growth turned out to be 104%.
As for `COc1ccc(NC(=O)CSc2nc3nc(C)ccc3o2)c(OC)c1`, the figure is 104%; as for `COC(=O)[C@H](CCSC)NC(=O)Nc1ccc(N2CCC(C)CC2)c(Cl)c1`, 86.4%.
`Cc1nc2cc(NC(C)C(=O)NCC(F)(F)F)ccc2o1` (centres undefined) had a growth of 99.6%.
As to `CCOC(=O)c1c(C)[nH]c(C)c1C(=O)CSc1nnc2nc(C)cc(C)n12`, the growth was 86.7%.
The result for `Cc1nc(-c2cccs2)c(CCC(=O)N2CCCC2)s1` reads 106%; that for `COCC(=O)Nc1nc2nc(-c3ccccc3)cc(O)n2n1`, 99.9%.
The result for `COc1ccc(CCNC(=O)C2CCC(=O)N2S(=O)(=O)c2ccc(C)cc2)cc1` (centres undefined) reads 101%; that for `CN(C)C(=O)C(OC(=O)c1ccc2c(c1)CCC(=O)N2)c1ccccc1` (centres undefined), 103%; that for `CCN(C(=O)c1cc(OC)cc(OC)c1)c1nc2c(C)cccc2s1`, 88.6%.
`CCCNC(=O)CSc1nnc(-c2ccc(NC(C)=O)cc2)n1-c1ccccc1`: the growth came to 102%.
As for `CCOC(=O)c1sc(-n2nc(C)c(Cc3ccccc3)c2O)nc1C`, the figure is 117%; as for `COC(=O)c1c(C)nn(-c2ccc(F)cc2)c1-n1cccc1`, 94.9%; as for `COc1ccccc1NC(=O)Nc1ccc2c(c1)C(=O)OC2`, 93.6%.
As for `CC(=O)\C1=C(/O)C(=O)N(C1C2=CC=CN=C2)C3=CC=C(OCC(O)=O)C=C3` (centres undefined), the growth amounted to 87.3%.
As for `COC(=O)CCc1nc(-c2nonc2N)no1`, the figure is 89%; as for `O=C(NCc1ccco1)N1CCN(c2ccccn2)CC1`, 96.7%; as for `CCS(=O)(=O)c1ccccc1C(=O)OCC(=O)N1CCNC1=O`, 117%.
The result for `CN(Cc1cnn(Cc2ccccc2)c1)C(=O)c1cc(Cl)ccc1Cl` reads 96.4%; that for `CCCC(=O)N(c1nc(C)c(C(C)=O)s1)C1CC1`, 98.4%; that for `CCOC(=O)c1cnn2c1nc(O)c1ccccc12`, 103%.
As to `Cc1cc(C)c(NC(=O)CCCN(c2ccc3c(c2)OCO3)S(C)(=O)=O)c(C)c1`, the growth is 115%.
As for `C[N]1N=CC(=C1C)N2\N=N/C3=C([N](C)N=C3)C2=O`, the figure is 104%; as for `CCOC(=O)c1csc(NC(=O)c2cc(C)oc2C)n1`, 89.9%; as for `COc1ccc(C(=O)Nc2ccc(OC)c(Cl)c2)c(OC)n1`, 102%.
As for `NC(=O)c1ccc(S(=O)(=O)N2CCN(CCC(=O)N3CCOCC3)CC2)o1`, the figure is 86.9%; as for `Nc1nnc(SCc2nc(-c3cccc(C(F)(F)F)c3)no2)s1`, 101%.
As for `Brc1nnnn1-c1ccc2c(c1)OCCO2`, the figure is 92.8%.
`COC(=O)C(CC(C)C)NC(=O)c1ccc(S(=O)(=O)N2CCc3ccccc3C2)cc1` (centres undefined) had a growth of 96.1%.
The result for `CCc1ccc(N2C(=O)CN(S(C)(=O)=O)CC2(C)C(=O)NCc2ccccc2)cc1` (centres undefined) reads 103%.
As for `CC(C)NC(=O)NCCc1nc2cccnc2n1-c1ccccc1`, the figure is 102%.
As for `Cc1noc(C)c1S(=O)(=O)NCCC(=O)N(C)Cc1ccc2c(c1)OCCO2`, the figure is 107%; as for `COC(=O)c1c(C)[nH]c(C(=O)N2CCOC(C)C2)c1C` (centres undefined), 102%.
`COc1ccc(CCNC(=O)c2ccc(Cn3cc(Cl)cn3)cc2)cc1`: the growth came out at 88.4%.
As for `CCN(CC)c1nc2sc(C(=O)OCc3nccs3)cc2s1`, the figure is 71.6%.
As for `Cc1ccc(-n2cnnn2)cc1NCC(=O)NC1CCCCCC1`, the figure is 90%.
The result for `COC(=O)CNC(=O)c1cc2ccccc2cc1OCc1c(C)noc1C` reads 99.9%; that for `COc1cc(NCC(=O)N2CCC(C)Sc3ccccc32)c(OC)cc1Cl` (centres undefined), 104%.
Regarding `CC(c1cccnc1)N(C(=O)Nc1ccc(Cl)cc1)C1CCCCC1` (centres undefined), the growth is 97%.

Values taken from the supplement of paper PMC8007513.
